Experiments:
[1] = tested on: MDA-MB-231; experiment: MTT assay, MDA-MB-231 breast cancer cell line; format: cell-based; settings: Homo sapiens; SAHA in MDA-MB-231
Description: The breast cancer cell lines shown in Table 2 were screened to determine the localization of the aryl hydrocarbon receptor (AhR) in accordance with the techniques discussed above. MTT assays were conducted to measure cell death on various breast cancer cell lines.
(§1) As shown below in Table 4, the genetic profile of 11 breast cancer cell lines was determined and each cell line was tested to determine the 50% inhibitory concentration (IC50) of aminoflavone. The inhibitory concentration 50% were determined by MTT assay and following the NCI DTP in vitro testing procedures (http://dtp.nci.nih.gov/branches/btb/ivclsp.html). Three independent MTT in vitro tumor cell growth inhibition experiments were conducted and a mean IC50 value generated as shown in Table 4.
(§2) Combination studies were performed according to the method by Chou and Talalay (see Chou, T. C., and Talalay, P. Quantitative analysis of dose-effect relationships: The combine effects of multiple drugs or enzyme inhibitors, Adv. Enzyme Regul., 22:27-55, 1984) at the fixed IC50 ratio by employing a range of 8 concentrations for each drug and determining growth by MTT assay. In one case, synergism of two agents exists if the combination indices at the effective (ED) doses 50, 75 or 90% are below 1, if they are 1, drugs are additive; above 1, drugs are antagonistic.

[2] = tested on: Hs578t; experiment: MTT assay, Hs578t breast cancer cell line; format: cell-based; settings: Homo sapiens, Hs-578T; SAHA in Hs578T
Description: as §1, §2

Work on `O=C(CCCCCCC(=O)Nc1ccccc1)NO` [SAHA, suberoylanilide hydroxamic acid] yielded an IC50 [1] of 2.5 µM and an IC50 [2] of 8 µM.
